Cleaved PARP in drug-treated melanoma cells

Drug key:
PLX4720: CCCS(=O)(=O)Nc1ccc(F)c(C(=O)c2c[nH]c3ncc(Cl)cc23)c1F at 0.4 µM
sunitinib: CCN(CC)CCNC(=O)c1c(C)[nH]c(/C=C2\C(=O)Nc3ccc(F)cc32)c1C at 2 µM
nilotinib: Cc1cn(-c2cc(NC(=O)c3ccc(C)c(Nc4nccc(-c5cccnc5)n4)c3)cc(C(F)(F)F)c2)cn1 at 1 µM
cisplatin: N.N.[Cl][Pt][Cl] at 8 µM
decitabine: Nc1ncn([C@H]2C[C@H](O)[C@@H](CO)O2)c(=O)n1 at 0.5 µM
ABT-263: CC1(C)CCC(c2ccc(Cl)cc2)=C(CN2CCN(c3ccc(C(=O)NS(=O)(=O)c4ccc(N[C@H](CCN5CCOCC5)CSc5ccccc5)c(S(=O)(=O)C(F)(F)F)c4)cc3)CC2)C1 at 2 µM
AZD7762: NC(=O)Nc1cc(-c2cccc(F)c2)sc1C(=O)N[C@H]1CCCNC1 at 0.1 µM
SNS-314: O=C(Nc1cccc(Cl)c1)Nc1ncc(CCNc2ncnc3ccsc23)s1 at 0.004 µM
cediranib: COc1cc2c(Oc3ccc4[nH]c(C)cc4c3F)ncnc2cc1OCCCN1CCCC1 at 2 µM

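Human melanoma cell lines in 1,536-well plates were treated with two drugs together for 72 h, then fixed, stained and imaged. Values are the share of nuclei positive for cleaved PARP as a percentage of the same share in the DMSO control: 100 is the control level, higher means more apoptosis. Every drug was used at one fixed concentration, the higher of two screened. No replicate spread is given; individual values may be noisy. The marker varies much from line to line, for technical or biological reasons.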 Only some of the drugs and lines screened are listed, without regard to their results. A dash means that no value is listed here.

Combination	WM3619	WM1745	COLO 829	IST-MEL1	SK-MEL-28	LB2518-MEL	WM1716	RPMI-7951	A2058	WM115	COLO 800	MEL-HO
PLX4720 + nilotinib	112	116	188	118	27.1	-	68.9	46.1	72.9	127	74.7	148
SNS-314 + AZD7762	496	111	306	134	279	-	223	558	246	337	398	84.1
SNS-314 + decitabine	163	106	327	219	224	281	193	107	259	309	194	101
decitabine + nilotinib	98.8	203	51.1	152	104	73.5	124	55.1	157	73.5	102	82.6
SNS-314 + cediranib	111	90.0	114	71.3	362	144	18.6	131	141	64.1	122	74.6
ABT-263 + decitabine	126	1720	163	114	190	140	1800	106	171	539	353	330
sunitinib + AZD7762	512	260	126	25.9	105	169	190	89.1	502	163	127	84.6
cisplatin + sunitinib	108	183	97.5	160	52.4	149	112	230	208	427	84.4	222
sunitinib + ABT-263	173	2170	209	123	156	319	904	140	257	5900	1880	74.0
cisplatin + nilotinib	108	114	102	109	74.2	364	274	162	153	167	25.6	182
ABT-263 + PLX4720	132	1980	221	80.9	413	327	809	102	151	553	246	98.2
PLX4720 + AZD7762	531	108	35.0	136	121	-	279	767	265	142	78.1	95.3
AZD7762 + cediranib	600	129	232	77.7	743	160	586	140	347	198	194	87.7
cediranib + cisplatin	89.2	79.0	150	68.5	128	98.7	81.4	214	74.3	206	74.7	127
decitabine + sunitinib	100	173	62.3	93.0	148	51.2	129	73.5	145	107	97.8	252
cisplatin + AZD7762	426	121	124	117	199	139	637	508	338	534	192	323
decitabine + cisplatin	138	101	91.3	136	104	197	391	188	240	322	145	155
decitabine + cediranib	103	77.1	56.8	229	79.4	228	21.6	52.8	94.3	124	348	85.9
ABT-263 + cediranib	99.9	11100	122	71.5	336	108	1150	405	213	53.7	152	100
SNS-314 + PLX4720	155	108	104	167	105	76.9	183	39.1	106	121	110	98.3
PLX4720 + cisplatin	114	93.3	61.9	146	64.5	63.4	172	74.1	66.7	113	63.3	177
sunitinib + PLX4720	111	143	157	154	341	182	114	152	152	282	312	43.6

From a melanoma drug combination screen (doi:10.1371/journal.pone.0140310); values rounded.